Assay results: the supplement of paper PMC12889115
The list shows a part of the results. Values are raw readings; no control value is given beside them.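 In the initial screen, polymyxin B was used at a concentration that permeabilizes Salmonella's outer membrane but not its inner membrane. Maximum growth was set by DMSO wells with or without polymyxin B. Since plates varied, data were ranked per plate, and compounds giving the lowest OD600 advanced as hits.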

Tested on: Salmonella enterica serovar Typhimurium SL1344
Assay: bacterial growth OD600 after 18 h with compound and polymyxin B; higher = more bacterial growth (less inhibition)
Conditions: 50 µM, Mueller-Hinton broth

Row | Structure (SMILES) | bacterial growth OD600 (polymyxin B 0.75 µg/mL) | bacterial growth OD600 (polymyxin B 1 µg/mL)
1 | O=C(NC1CCCN(CCc2ccccc2)C1)c1ccncc1 (centres undefined) | 0.804 | 
2 | CN(Cc1nc2ccccc2[nH]1)C(=O)c1cc(NC(=O)C2CCCO2)c2c(c1)nc(C1CCC1)n2C (centres undefined) | 0.823 | 
3 | COCCN1CCN(C(=O)CC2C(=O)NCCN2Cc2cccc3ccccc23)CC1 (centres undefined) |  | 1.04
4 | Cc1ccnn1CCC(=O)N1CCOC(CCc2ccccc2)C1 (centres undefined) | 0.82 | 
5 | CCOc1ccc2nc(N3CCCN(Cc4ccc(OC)c(OC)c4OC)CC3)nc(C)c2c1 | 0.967 | 
6 | Cc1cccnc1CCNC(=O)Cn1nnnc1CN1C[C@@H](C)O[C@@H](C)C1 | 0.835 | 
7 | COCCn1c(CN2CCC(C)CC2)cnc1S(=O)(=O)C1CCCCCC1 |  | 1.11
8 | CCOC(=O)C1(Cc2cccc(F)c2)CCN(Cc2cc(C)n[nH]2)CC1 |  | 0.835
9 | CCN(CC1CCCO1)C(=O)c1cc(NC(=O)COC)cc2ncn(Cc3ccc(F)cc3)c12 (centres undefined) | 0.894 | 
10 | Cc1ccc(CNC(=O)C2CCCN(c3nc(C)c4ccc(S(C)(=O)=O)cc4n3)C2)cc1 (centres undefined) | 0.908 | 
11 | O=C1CCC(C(=O)N2CCC(OCc3ccccc3)CC2)CN1Cc1ccccn1 (centres undefined) |  | 0.856
12 | CC#CCN1C(=O)NC(CCc2ccccc2)(C2CCN(Cc3ccc(CO)o3)CC2)C1=O (centres undefined) | 0.925 | 
13 | CN(C)c1ncc(CN2CCOC(CCc3ccccc3)C2)s1 (centres undefined) | 0.978 | 
14 | Cc1nccn1CCCNCc1c(C(=O)N2C[C@@H](C)O[C@@H](C)C2)nc2sccn12 |  | 0.645
15 | O=C(CSc1ccccn1)NC1CC(=O)N(CCc2ccc(F)cc2)C1 (centres undefined) |  | 1.05
16 | COc1cc(CN2CCN(Cc3cc(C)ccc3C)CC2CCO)cc(OC)c1 (centres undefined) |  | 0.902
17 | CSc1ccccc1C(=O)N1CCC(C(Cc2ccccc2F)N(C)C(=O)c2cccs2)CC1 (centres undefined) | -0.004 | 
18 | COCCn1cnc2cc(NC(=O)C3CCCCC3)cc(C(=O)N3CCN(c4ccccc4)CC3)c21 | 0.758 | 
19 | Cc1ccn2c(CNCc3ccc4c(c3)OCO4)c(C(=O)N3CCCCCC3)nc2c1 |  | 0.007

Gathered by group: those above containing a halogen
Row | Structure (SMILES) | bacterial growth OD600 (polymyxin B 0.75 µg/mL) | bacterial growth OD600 (polymyxin B 1 µg/mL)
8 | CCOC(=O)C1(Cc2cccc(F)c2)CCN(Cc2cc(C)n[nH]2)CC1 |  | 0.835
9 | CCN(CC1CCCO1)C(=O)c1cc(NC(=O)COC)cc2ncn(Cc3ccc(F)cc3)c12 (centres undefined) | 0.894 | 
15 | O=C(CSc1ccccn1)NC1CC(=O)N(CCc2ccc(F)cc2)C1 (centres undefined) |  | 1.05
17 | CSc1ccccc1C(=O)N1CCC(C(Cc2ccccc2F)N(C)C(=O)c2cccs2)CC1 (centres undefined) | -0.004 | 
